Taken from: PubChem BioAssay AID1224826 (NIAID, 2016)
Screen: 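Knock-downs that raise or lower Tnf reporter signal after endotoxin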 (primary screen). Cell system: RAW264.7 G9 macrophages from mouse bearing reporters for p65 (GFP) and the Tnf promoter (mCherry). Reagents: siRNA pool against mouse genes, 100 nM. Duration: 16 h of LPS stimulation, after 2 days of siRNA transfection. Treatment: bacterial lipopolysaccharide (Salmonella minnesota R595), 10 ng/ml. Measured: 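Imaged Tnf reporter mCherry in nuclei, minus background, normalised per plate to the median and expressed as robust z-scores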. Direction: Tnf reporter robust z-score: higher = stronger Tnf promoter reporter signal after LPS. Hit rule: 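Called active when robust z-score is at most -1.3, matching the median of the Tlr4 knock-down control, or over 3; control wells and wells with under 50 cells never active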. Meaning of the calls: active = Tnf reporter clearly lowered or raised; inactive = no clear change in Tnf reporter.
In all, the deposit lists about 17,000 reagents; below is a part drawn at random. In the full data, about 1,110 (6.6%) were called active. 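Active means lowered or raised reporter signal; replicate intensities are raw and not normalised per plate.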 Unmarked entries are inactive. Not all columns of the deposit are shown.

target gene	Tnf reporter robust z-score	fewer than 50 cells in well
Clec2m (GeneID 381816)	-0.49	enough cells in well
Il9r (GeneID 16199)	0.92	enough cells in well
Mims1 (GeneID 108654)		fewer than 50 cells per well; well left out of calls
Tex18 (GeneID 83559)	0.3	enough cells in well
Slc11a2 (GeneID 18174)	1.57	enough cells in well
Epha5 (GeneID 13839)	1.15	enough cells in well
Tpst1 (GeneID 22021)	0.56	enough cells in well
Defa1 (GeneID 13216)	-1.3 (active)	enough cells in well
Kel (GeneID 23925)	0.75	enough cells in well
Stx3 (GeneID 20908)	-0.09	enough cells in well
Mta3 (GeneID 116871)	0.25	enough cells in well
Qsox1 (GeneID 104009)	0.45	enough cells in well
Or10z1 (GeneID 258710)	-0.79	enough cells in well
Or51ah3 (GeneID 259084)	2.55	enough cells in well
Nphs2 (GeneID 170484)	-0.65	enough cells in well
Ptges3l (GeneID 73635)		fewer than 50 cells per well; well left out of calls
Prl8a8 (GeneID 74188)	1.21	enough cells in well
4930522H14Rik (GeneID 67646)	-0.59	enough cells in well
Bpgm (GeneID 12183)	0.43	enough cells in well
Pdcd6ip (GeneID 18571)	0.13	enough cells in well
Arap1 (GeneID 69710)	0.55	enough cells in well
Cdc123 (GeneID 98828)	-0.06	enough cells in well
Knop1 (GeneID 66356)		fewer than 50 cells per well; well left out of calls
Or5p59 (GeneID 258730)	-0.18	enough cells in well
